The supplement of paper PMC10849652
The other results are listed elsewhere or left out.

Protein sequences, listed by entry. Tags and fused reporters are not part of them. Lines headed by an entry give the natural chain unless they say otherwise; changes in a name come on top.
UniProt P35659: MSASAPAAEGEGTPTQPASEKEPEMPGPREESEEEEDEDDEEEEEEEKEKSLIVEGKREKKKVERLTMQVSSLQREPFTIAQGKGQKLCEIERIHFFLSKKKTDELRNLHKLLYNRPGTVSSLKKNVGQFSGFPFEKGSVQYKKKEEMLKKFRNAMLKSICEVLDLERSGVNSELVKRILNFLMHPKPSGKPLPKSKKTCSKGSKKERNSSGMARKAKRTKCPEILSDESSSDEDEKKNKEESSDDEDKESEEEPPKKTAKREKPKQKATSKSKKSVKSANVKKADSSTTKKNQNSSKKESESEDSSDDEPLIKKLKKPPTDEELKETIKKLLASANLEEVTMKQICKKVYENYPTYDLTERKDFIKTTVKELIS
UniProt Q9NR30: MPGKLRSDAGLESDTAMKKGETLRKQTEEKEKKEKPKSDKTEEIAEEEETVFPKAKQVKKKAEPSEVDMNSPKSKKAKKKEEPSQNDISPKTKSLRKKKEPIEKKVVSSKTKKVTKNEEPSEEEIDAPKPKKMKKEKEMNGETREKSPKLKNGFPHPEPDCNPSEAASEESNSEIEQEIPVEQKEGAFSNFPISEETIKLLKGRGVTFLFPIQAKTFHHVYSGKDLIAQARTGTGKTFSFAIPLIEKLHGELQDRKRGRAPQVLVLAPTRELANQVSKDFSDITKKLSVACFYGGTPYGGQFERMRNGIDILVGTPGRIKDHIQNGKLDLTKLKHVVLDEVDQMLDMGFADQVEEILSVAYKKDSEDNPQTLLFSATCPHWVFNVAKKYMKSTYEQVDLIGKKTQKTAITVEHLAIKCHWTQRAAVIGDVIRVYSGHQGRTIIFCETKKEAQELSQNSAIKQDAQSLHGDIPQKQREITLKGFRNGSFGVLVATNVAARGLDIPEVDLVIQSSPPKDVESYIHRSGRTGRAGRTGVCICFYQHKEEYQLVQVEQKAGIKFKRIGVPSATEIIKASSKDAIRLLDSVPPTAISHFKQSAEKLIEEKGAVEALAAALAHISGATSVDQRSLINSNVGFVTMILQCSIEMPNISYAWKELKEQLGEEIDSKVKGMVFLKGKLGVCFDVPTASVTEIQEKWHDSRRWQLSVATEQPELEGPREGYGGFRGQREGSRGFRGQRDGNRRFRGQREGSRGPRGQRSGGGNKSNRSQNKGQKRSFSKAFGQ
UniProt Q9BTE1, whole entry, looked up: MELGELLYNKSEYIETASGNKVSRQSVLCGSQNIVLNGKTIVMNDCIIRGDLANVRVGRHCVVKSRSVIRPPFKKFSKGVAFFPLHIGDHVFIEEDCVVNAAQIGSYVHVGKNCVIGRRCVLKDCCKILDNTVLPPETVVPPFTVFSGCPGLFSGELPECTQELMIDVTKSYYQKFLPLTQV
UniProt Q8N465: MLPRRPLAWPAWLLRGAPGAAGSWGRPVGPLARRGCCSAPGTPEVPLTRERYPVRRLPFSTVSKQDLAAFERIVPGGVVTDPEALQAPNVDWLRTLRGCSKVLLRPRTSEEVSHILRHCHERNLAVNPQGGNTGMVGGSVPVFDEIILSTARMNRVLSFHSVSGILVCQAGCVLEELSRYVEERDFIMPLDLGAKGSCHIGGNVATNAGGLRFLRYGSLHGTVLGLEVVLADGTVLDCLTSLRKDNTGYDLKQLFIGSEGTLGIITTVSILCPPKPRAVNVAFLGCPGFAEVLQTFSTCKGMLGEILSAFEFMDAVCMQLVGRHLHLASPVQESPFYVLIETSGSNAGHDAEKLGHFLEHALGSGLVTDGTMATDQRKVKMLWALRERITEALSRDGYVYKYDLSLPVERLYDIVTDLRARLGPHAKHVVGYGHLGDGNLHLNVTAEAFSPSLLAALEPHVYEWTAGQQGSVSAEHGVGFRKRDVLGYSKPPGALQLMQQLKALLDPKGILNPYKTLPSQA
UniProt O00273: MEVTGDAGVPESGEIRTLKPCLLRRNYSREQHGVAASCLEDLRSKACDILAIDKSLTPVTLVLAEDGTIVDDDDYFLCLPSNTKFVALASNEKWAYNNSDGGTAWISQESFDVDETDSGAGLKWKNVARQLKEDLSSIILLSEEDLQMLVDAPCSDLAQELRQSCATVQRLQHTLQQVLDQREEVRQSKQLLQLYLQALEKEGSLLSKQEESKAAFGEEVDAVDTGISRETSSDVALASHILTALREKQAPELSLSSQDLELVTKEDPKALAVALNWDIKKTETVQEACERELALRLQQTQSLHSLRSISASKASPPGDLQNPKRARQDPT
UniProt P61803: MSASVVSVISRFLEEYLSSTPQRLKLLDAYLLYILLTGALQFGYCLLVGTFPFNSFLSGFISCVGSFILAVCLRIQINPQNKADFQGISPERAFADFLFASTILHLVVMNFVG
UniProt P0CG12: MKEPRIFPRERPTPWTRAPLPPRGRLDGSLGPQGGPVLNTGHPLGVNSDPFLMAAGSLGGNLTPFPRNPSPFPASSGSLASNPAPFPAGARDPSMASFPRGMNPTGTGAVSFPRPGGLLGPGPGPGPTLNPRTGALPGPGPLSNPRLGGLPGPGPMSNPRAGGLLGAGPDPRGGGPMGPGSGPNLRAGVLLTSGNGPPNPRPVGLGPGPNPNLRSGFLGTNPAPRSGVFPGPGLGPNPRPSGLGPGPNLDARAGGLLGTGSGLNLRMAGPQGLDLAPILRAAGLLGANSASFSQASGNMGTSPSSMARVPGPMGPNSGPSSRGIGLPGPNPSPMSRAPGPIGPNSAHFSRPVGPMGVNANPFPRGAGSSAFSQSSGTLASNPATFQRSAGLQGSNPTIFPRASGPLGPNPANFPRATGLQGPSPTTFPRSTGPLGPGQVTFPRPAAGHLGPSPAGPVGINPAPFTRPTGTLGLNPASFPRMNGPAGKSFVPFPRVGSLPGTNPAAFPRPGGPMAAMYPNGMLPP
UniProt O00148, whole entry, looked up: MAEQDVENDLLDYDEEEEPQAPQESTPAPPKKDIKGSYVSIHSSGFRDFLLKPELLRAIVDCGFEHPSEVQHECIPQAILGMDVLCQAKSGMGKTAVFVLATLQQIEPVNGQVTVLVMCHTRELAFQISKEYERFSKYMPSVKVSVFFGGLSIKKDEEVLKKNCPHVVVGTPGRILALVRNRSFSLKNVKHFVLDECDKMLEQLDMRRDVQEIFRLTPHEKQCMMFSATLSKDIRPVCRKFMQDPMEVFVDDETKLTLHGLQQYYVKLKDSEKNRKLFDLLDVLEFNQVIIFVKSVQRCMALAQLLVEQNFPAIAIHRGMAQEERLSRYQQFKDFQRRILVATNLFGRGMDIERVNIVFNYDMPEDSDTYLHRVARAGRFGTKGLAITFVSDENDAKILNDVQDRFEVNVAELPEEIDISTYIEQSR
UniProt P30046: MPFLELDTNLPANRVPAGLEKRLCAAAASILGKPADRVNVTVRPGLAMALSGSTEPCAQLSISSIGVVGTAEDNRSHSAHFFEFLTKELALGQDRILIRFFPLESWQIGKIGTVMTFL
UniProt Q8NCG7: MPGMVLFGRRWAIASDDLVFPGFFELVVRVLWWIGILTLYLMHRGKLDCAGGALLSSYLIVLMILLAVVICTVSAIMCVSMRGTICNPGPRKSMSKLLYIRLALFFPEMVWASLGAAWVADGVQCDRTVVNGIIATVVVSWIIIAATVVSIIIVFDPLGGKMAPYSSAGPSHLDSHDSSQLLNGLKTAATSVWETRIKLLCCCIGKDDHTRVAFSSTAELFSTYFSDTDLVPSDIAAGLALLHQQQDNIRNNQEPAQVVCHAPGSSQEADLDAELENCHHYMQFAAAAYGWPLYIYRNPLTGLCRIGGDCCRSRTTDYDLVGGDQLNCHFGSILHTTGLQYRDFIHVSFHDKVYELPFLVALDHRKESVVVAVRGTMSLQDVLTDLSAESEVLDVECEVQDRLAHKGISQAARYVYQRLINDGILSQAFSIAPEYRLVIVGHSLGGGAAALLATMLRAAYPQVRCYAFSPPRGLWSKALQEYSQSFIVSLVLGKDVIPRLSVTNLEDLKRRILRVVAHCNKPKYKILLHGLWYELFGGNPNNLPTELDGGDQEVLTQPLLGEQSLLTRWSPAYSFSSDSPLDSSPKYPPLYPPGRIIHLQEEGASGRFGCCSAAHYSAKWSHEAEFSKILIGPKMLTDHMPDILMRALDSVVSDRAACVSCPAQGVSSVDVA
UniProt Q6PI48: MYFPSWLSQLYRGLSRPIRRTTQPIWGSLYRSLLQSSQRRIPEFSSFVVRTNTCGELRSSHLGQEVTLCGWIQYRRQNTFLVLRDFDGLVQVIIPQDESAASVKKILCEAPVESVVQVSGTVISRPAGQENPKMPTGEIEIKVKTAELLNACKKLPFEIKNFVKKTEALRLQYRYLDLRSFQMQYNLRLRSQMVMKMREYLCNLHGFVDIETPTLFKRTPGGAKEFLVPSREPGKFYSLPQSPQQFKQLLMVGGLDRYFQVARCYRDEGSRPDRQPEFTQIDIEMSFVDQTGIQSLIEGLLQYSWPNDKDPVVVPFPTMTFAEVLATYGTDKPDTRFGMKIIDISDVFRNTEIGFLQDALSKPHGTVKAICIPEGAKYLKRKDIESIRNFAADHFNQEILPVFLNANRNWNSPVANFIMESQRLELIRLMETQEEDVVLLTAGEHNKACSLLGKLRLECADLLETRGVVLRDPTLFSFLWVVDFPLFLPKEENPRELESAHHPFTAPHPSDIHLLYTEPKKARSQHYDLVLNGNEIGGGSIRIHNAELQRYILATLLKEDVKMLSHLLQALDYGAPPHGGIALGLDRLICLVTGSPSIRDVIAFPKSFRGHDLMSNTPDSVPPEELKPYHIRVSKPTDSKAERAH
UniProt Q9NPI6: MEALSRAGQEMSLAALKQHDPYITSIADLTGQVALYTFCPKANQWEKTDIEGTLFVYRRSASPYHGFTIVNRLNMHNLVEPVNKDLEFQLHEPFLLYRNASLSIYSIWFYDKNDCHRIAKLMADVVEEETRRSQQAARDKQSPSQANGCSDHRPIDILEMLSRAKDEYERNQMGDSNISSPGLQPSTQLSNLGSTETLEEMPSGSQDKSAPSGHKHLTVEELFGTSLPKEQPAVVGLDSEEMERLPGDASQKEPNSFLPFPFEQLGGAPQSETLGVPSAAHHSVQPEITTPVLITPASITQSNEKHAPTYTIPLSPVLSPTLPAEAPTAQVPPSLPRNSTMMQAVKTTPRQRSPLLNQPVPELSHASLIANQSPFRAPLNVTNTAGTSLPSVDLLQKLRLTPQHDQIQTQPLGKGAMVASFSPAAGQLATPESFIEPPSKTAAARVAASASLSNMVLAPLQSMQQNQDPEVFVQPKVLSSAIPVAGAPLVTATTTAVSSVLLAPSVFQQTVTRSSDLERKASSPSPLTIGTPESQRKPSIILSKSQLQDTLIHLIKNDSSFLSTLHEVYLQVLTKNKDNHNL
UniProt Q5TAQ9: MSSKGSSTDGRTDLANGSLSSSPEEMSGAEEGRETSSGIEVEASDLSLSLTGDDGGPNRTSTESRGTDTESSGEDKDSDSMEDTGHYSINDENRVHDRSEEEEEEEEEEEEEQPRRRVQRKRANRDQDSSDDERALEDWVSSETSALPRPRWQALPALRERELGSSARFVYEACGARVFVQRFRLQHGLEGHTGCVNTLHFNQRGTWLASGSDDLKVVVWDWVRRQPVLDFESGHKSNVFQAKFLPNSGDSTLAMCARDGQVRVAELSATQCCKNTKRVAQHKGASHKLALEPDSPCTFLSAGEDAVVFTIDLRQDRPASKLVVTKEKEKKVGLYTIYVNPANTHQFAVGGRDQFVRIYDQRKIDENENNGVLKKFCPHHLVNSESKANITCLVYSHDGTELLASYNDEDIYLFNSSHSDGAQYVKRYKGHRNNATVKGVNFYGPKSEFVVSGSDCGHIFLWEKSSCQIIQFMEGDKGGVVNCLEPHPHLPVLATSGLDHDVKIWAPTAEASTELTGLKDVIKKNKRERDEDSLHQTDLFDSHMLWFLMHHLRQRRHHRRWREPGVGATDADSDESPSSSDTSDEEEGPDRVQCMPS
UniProt Q5TDH0: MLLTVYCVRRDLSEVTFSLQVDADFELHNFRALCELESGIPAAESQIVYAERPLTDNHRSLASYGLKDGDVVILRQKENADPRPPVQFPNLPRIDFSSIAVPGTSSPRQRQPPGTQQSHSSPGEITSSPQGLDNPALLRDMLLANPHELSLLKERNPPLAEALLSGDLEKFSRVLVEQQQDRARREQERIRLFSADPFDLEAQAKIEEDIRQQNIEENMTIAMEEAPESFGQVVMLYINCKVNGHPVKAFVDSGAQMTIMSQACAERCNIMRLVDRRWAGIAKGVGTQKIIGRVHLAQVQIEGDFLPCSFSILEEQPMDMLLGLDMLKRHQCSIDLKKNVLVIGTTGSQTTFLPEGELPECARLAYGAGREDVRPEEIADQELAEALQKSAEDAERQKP
UniProt O43583: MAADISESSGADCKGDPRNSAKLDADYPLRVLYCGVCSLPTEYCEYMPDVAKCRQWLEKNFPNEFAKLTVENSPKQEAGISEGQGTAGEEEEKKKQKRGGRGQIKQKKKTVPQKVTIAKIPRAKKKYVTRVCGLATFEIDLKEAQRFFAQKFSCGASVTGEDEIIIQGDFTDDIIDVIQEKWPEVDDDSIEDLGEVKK

compound: NC(=O)c1cnc(N[C@@H]2CCCC[C@@H]2N)nc1Nc1cccc(-n2nccn2)c1; test: log2 fold change, soluble protein after heating vs DMSO (PISA); higher = thermal stabilisation; K562 lysate, 10 uM; active = over 0.2 and 3.5 SD of the protein, either way, in both replicates (recomputed)
In short: (§1)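 The values are log-two fold changes in thermal stability compared with solvent controls and come from duplicates. They were obtained by TMTpro 16plex LC-MS/MS, with channel sums equalised, on the supernatant after 21,000xg for 90 min. That supernatant came from crude K562 extract at 1 mg/mL protein treated with 10 μM compound for 30 min, heated for 3 min across 48°C-58°C, pooled and brought to 0.5% NP-40 at 4°C.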

Row | Target | log2 fold change
1 | DENND4C (UniProt Q5VZ89) | inactive: 0.004
2 | DEK (UniProt P35659) | inactive: -0.009
3 | DBN1 (UniProt Q16643) | inactive: -0.002
4 | DDX21 (UniProt Q9NR30) | inactive: -0.006
5 | DCTN5 (UniProt Q9BTE1) | inactive: 0.002
6 | D2HGDH (UniProt Q8N465) | inactive: 0.015
7 | DDX39B isoform 2 (UniProt Q13838) | inactive: 0.003
8 | DFFA isoform 2 (UniProt O00273) | inactive: -0.253
9 | DDB2 (UniProt Q92466) | inactive: 0.006
10 | DDX59 (UniProt Q5T1V6) | inactive: -0.011
11 | CYP51A1 (UniProt Q16850) | inactive: -0.009
12 | DEF6 (UniProt Q9H4E7) | inactive: 0.044
13 | DAD1 (UniProt P61803) | inactive: 0.083
14 | DERPC (UniProt P0CG12) | inactive: -0.022
15 | DDX39A (UniProt O00148) | inactive: 0.036
16 | DCTN1 (UniProt Q14203) | inactive: 0.009

Row | Target | log2 fold change
17 | DDA1 (UniProt Q9BW61) | inactive: -0.027
18 | DCK (UniProt P27707) | inactive: -0.012
19 | DDT (UniProt P30046) | inactive: -0.07
20 | DERL2 (UniProt Q9GZP9) | inactive: 0.025
21 | DBR1 (UniProt Q9UK59) | inactive: 0.009
22 | DAGLB (UniProt Q8NCG7) | inactive: 0.04
23 | DARS2 (UniProt Q6PI48) | inactive: 0.011
24 | DCP1A (UniProt Q9NPI6) | inactive: -0.041
25 | DCAF8 (UniProt Q5TAQ9) | inactive: -0.006
26 | DDI2 isoform 3 (UniProt Q5TDH0) | inactive: 0
27 | DENND1B (UniProt Q6P3S1) | inactive: 0.2
28 | DDX1 (UniProt Q92499) | inactive: 0.015
29 | DAPK1 isoform 3 (UniProt P53355) | inactive: -0.103
30 | DERL1 (UniProt Q9BUN8) | inactive: 0.049
31 | DDX6 (UniProt P26196) | inactive: -0.007
32 | DENR (UniProt O43583) | inactive: 0.009

compound: NC1(c2ccc(-c3nc4ccn5c(=O)[nH]nc5c4cc3-c3ccccc3)cc2)CCC1; test: as above
In short: as §1

Row | Target | log2 fold change
33 | DENND4C (UniProt Q5VZ89) | inactive: 0.025
34 | DEK (UniProt P35659) | inactive: -0.007
35 | DBN1 (UniProt Q16643) | inactive: -0.007
36 | DDX21 (UniProt Q9NR30) | inactive: -0.022
37 | DCTN5 (UniProt Q9BTE1) | inactive: -0.001
38 | D2HGDH (UniProt Q8N465) | inactive: -0.02
39 | DDX39B isoform 2 (UniProt Q13838) | inactive: 0.01
40 | DFFA isoform 2 (UniProt O00273) | inactive: -0.122
41 | DDB2 (UniProt Q92466) | inactive: -0.003
42 | DDX59 (UniProt Q5T1V6) | inactive: 0.054
43 | CYP51A1 (UniProt Q16850) | inactive: -0.081
44 | DEF6 (UniProt Q9H4E7) | inactive: -0.01
45 | DAD1 (UniProt P61803) | inactive: -0.102
46 | DERPC (UniProt P0CG12) | inactive: 0.087
47 | DDX39A (UniProt O00148) | inactive: -0.013
48 | DCTN1 (UniProt Q14203) | inactive: -0.007

Row | Target | log2 fold change
49 | DDA1 (UniProt Q9BW61) | inactive: 0.023
50 | DCK (UniProt P27707) | inactive: -0.02
51 | DDT (UniProt P30046) | inactive: 0.031
52 | DERL2 (UniProt Q9GZP9) | inactive: 0.017
53 | DBR1 (UniProt Q9UK59) | inactive: 0.023
54 | DAGLB (UniProt Q8NCG7) | inactive: 0.034
55 | DARS2 (UniProt Q6PI48) | inactive: -0.015
56 | DCP1A (UniProt Q9NPI6) | inactive: -0.03
57 | DCAF8 (UniProt Q5TAQ9) | inactive: 0.031
58 | DDI2 isoform 3 (UniProt Q5TDH0) | inactive: 0.008
59 | DENND1B (UniProt Q6P3S1) | inactive: 0.209
60 | DDX1 (UniProt Q92499) | inactive: 0.002
61 | DAPK1 isoform 3 (UniProt P53355) | inactive: -0.075
62 | DERL1 (UniProt Q9BUN8) | inactive: -0.038
63 | DDX6 (UniProt P26196) | inactive: -0.001
64 | DENR (UniProt O43583) | inactive: 0.006

compound: NCC(=O)Nc1ccc(-n2nc(C(F)(F)F)cc2-c2ccc3c(ccc4ccccc43)c2)cc1; test: as above
In short: as §1

Row | Target | log2 fold change
65 | DENND4C (UniProt Q5VZ89) | inactive: 0.013
66 | DEK (UniProt P35659) | inactive: 0.016
67 | DBN1 (UniProt Q16643) | inactive: 0.021
68 | DDX21 (UniProt Q9NR30) | inactive: 0.021
69 | DCTN5 (UniProt Q9BTE1) | inactive: -0.016
70 | D2HGDH (UniProt Q8N465) | inactive: 0.026
71 | DDX39B isoform 2 (UniProt Q13838) | inactive: 0.004
72 | DFFA isoform 2 (UniProt O00273) | inactive: 0.095
73 | DDB2 (UniProt Q92466) | inactive: 0.054
74 | DDX59 (UniProt Q5T1V6) | inactive: -0.033
75 | CYP51A1 (UniProt Q16850) | inactive: -0.065
76 | DEF6 (UniProt Q9H4E7) | inactive: 0.085
77 | DAD1 (UniProt P61803) | inactive: 0.05
78 | DERPC (UniProt P0CG12) | inactive: -0.045
79 | DDX39A (UniProt O00148) | inactive: 0.017
80 | DCTN1 (UniProt Q14203) | inactive: 0.011

Row | Target | log2 fold change
81 | DDA1 (UniProt Q9BW61) | inactive: -0.024
82 | DCK (UniProt P27707) | inactive: 0.009
83 | DDT (UniProt P30046) | inactive: -0.026
84 | DERL2 (UniProt Q9GZP9) | inactive: -0.059
85 | DBR1 (UniProt Q9UK59) | inactive: -0.015
86 | DAGLB (UniProt Q8NCG7) | inactive: 0.024
87 | DARS2 (UniProt Q6PI48) | inactive: 0.039
88 | DCP1A (UniProt Q9NPI6) | inactive: -0.03
89 | DCAF8 (UniProt Q5TAQ9) | inactive: 0.01
90 | DDI2 isoform 3 (UniProt Q5TDH0) | inactive: -0.003
91 | DENND1B (UniProt Q6P3S1) | inactive: -0.063
92 | DDX1 (UniProt Q92499) | inactive: -0.017
93 | DAPK1 isoform 3 (UniProt P53355) | inactive: 0.09
94 | DERL1 (UniProt Q9BUN8) | inactive: -0.009
95 | DDX6 (UniProt P26196) | inactive: -0.002
96 | DENR (UniProt O43583) | inactive: -0.005
